Results are given in words; binding and its absence hold for the method and conditions named. Binding calls can cover weak binding; strength is not graded here.

By UniProt entry, the sequences of proteins in these tests, tags left out. Where a name states a change or a piece, a line headed by the entry shows the natural chain unless it says otherwise.
UniProt P06956: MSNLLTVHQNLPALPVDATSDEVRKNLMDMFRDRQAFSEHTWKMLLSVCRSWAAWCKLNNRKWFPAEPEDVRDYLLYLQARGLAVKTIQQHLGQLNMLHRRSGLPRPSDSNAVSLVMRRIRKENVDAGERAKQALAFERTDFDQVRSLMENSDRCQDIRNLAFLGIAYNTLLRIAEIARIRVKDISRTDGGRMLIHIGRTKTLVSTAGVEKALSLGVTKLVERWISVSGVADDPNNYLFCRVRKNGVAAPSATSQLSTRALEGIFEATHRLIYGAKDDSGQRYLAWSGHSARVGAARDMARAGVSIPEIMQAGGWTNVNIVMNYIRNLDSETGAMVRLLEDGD

One substance from paper doi:10.1101/2021.07.31.454597 (bioRxiv, 2021) can be followed below.

The test has as its target Cre^Yang (R72E/L115D/R199D) (UniProt P06956). The test is described as follows: cryo-EM structure.

As for “Cre^Yin (D33A/A36V/R192A) (from UniProt P06956 1-343) (enzyme)”, the binding entry is listed as “binds”.
